Screening data

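293T-iDUX4 dual-reporter cells; luminescence of the tet-on Italica luciferase control is read after 24 h. The test concentration is not given here. Percent change in the Italica control signal; more negative values mean stronger inhibition, which points to nonspecific, tet-on or cytotoxic effects.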

Values are in %. Common to all entries: measured here: Italica tet-on control reporter. Part of the compounds only, not a random draw; the main read-out is not listed here.

SMILES	activity change (%)
N#Cc1ccc(-c2ccc3c(c2)[C@@H]2[C@@H](CCN2C(=O)c2ccc4c(c2)OCO4)[C@@H](CO)N3)cc1	-10.36
O=S(=O)(c1ccccc1F)N1CC[C@@H]2[C@@H](CO)Nc3ccc(C4=CCCCC4)cc3[C@@H]21	-75.06
Cc1ccc(S(=O)(=O)N2C[C@@H](O)COC[C@H]3O[C@H](CC(=O)NCc4ccc(Cl)c(Cl)c4)CC[C@@H]32)cc1	-6.722
Cc1ccccc1S(=O)(=O)N1CC[C@@H]2[C@H]1c1cc(-c3cccc(C#N)c3)ccc1N[C@@H]2CO	-49.86
O=C(C[C@@H]1CC[C@H]2[C@@H](COC[C@@H](O)CN2Cc2nccs2)O1)NCc1ccc(Oc2ccccc2)cc1	-7.713
O=C(C[C@H]1CC[C@H]2[C@@H](COC[C@H](O)CN2Cc2ccc(Oc3ccccc3)cc2)O1)N1CCN(c2ccccc2)CC1	-43.02
O=C(NC1CCCC1)[C@@H]1[C@@H](CO)[C@@H]2Cn3c(ccc(-c4ccncc4)c3=O)[C@@H]2N1CCc1ccccc1	-3.823
C[C@H](CO)N1C[C@H](C)[C@H](CN(C)C(=O)[C@H](C)c2ccccc2)OCc2ccccc2-c2ccccc2C1=O	-2.291
COc1ccc2c3c(n(C)c2c1)[C@@H](CO)N(C(=O)Nc1ccc(F)cc1)CC31CCN(C(=O)c2ccc3c(c2)OCO3)CC1	-13.47
CO[C@@H]1CN(C)C(=O)c2cc(NC(=O)C3CCCCC3)ccc2OC[C@H](C)N(Cc2cccnc2)C[C@@H]1C	-10.61
COc1cccc(S(=O)(=O)Nc2ccc3c(c2)[C@@H]2C[C@@H](CC(=O)NCc4ccc(Cl)cc4)O[C@@H](CO)[C@@H]2O3)c1	-64.36
C[C@H](CO)N1C[C@H](C)[C@@H](CN(C)Cc2cccc3c2OCCCO3)OCc2ccccc2-c2c(n(C)c3ccccc23)C1=O	-25.81
C[C@@H]1CN([C@H](C)CO)C(=O)c2ccccc2-c2ccccc2CO[C@@H]1CN(C)Cc1ccc(-c2ccccc2)cc1	1.766
CO[C@H]1CN(C)C(=O)c2cc(NC(=O)c3ccc4c(c3)OCO4)ccc2OC[C@@H](C)N(CCC(F)(F)F)C[C@H]1C	2.143
CN(C)CC#Cc1ccc([C@H]2[C@H](CO)N3CCCCN(S(=O)(=O)c4ccccc4)C[C@@H]23)cc1	-18.02
CCCNC(=O)N1C[C@@H]2N[C@H](C1)C2c1ccc(-c2ccc(OC)cc2)cc1 (some centres unmarked)	-63.93
O=C(C[C@@H]1CC[C@H]2[C@@H](COC[C@@H](O)CN2CCc2ccccc2)O1)NCc1ccc(Oc2ccccc2)cc1	-12.73
CN(C)C(=O)c1ccc(-c2ccc3c(c2)[C@@H]2[C@@H](CCN2S(=O)(=O)c2ccccc2)[C@@H](CO)N3)cc1	-30.85
O=C1CN(S(=O)(=O)Cc2ccccc2)C[C@@H]2[C@H](c3ccc(C#Cc4ccccc4)cc3)[C@H](CO)N12	-21.12
O=C(C[C@H]1CC[C@H]2[C@@H](COC[C@@H](O)CN2CCc2ccccc2)O1)NCc1ccc(F)cc1	-4.143
OC[C@@H]1[C@@H](c2ccccc2)C2(CN(Cc3nccs3)C2)N1Cc1ccccc1	-13.8
O=C(Cc1ccccc1)N1CC[C@@H]2[C@H]1c1cc(-c3cccc(F)c3)ccc1N[C@@H]2CO	-15.07
CCCNC(=O)N1CC2(C1)[C@H](c1ccccc1)[C@@H](CO)N2Cc1ccc(Cl)cc1	-0.7775
Cc1ccccc1S(=O)(=O)N(C)C[C@H]1OCc2ccccc2-c2c(n(C)c3ccccc23)C(=O)N([C@@H](C)CO)C[C@H]1C	-7.878
CN1c2ccc(-c3cccc(C#N)c3)cc2[C@H]2[C@H](CCN2S(=O)(=O)c2cccc(F)c2)[C@@H]1CO	-53.22
COc1ccccc1CNC(=O)C[C@H]1C[C@H]2c3cc(NC(=O)c4ccc5c(c4)OCO5)ccc3O[C@H]2[C@@H](CO)O1	-1.552
COc1ccc(CN2C[C@H](O)COC[C@@H]3O[C@H](CC(=O)N4CCc5ccccc5C4)CC[C@H]32)cc1	-15.17
C[C@H](C(=O)N(C)C[C@@H]1OCc2ccccc2-c2c(n(C)c3ccccc23)C(=O)N([C@H](C)CO)C[C@H]1C)c1ccccc1	-34.3
O=C(Nc1ccc(F)cc1)N1CC(=O)N2[C@H](C1)[C@@H](c1ccc(C#Cc3ccccc3)cc1)[C@@H]2CO	-14.97
COc1ccc(-c2ccc3c(c2)[C@@H]2[C@@H](CCN2S(=O)(=O)c2ccc(OC)cc2)[C@@H](CO)N3C)cc1	-52.24
COc1cccc(CN2[C@H](CO)[C@@H](c3ccccc3)C23CN(Cc2ccccc2OC)C3)c1	-26.67
COCC#Cc1ccc([C@@H]2[C@@H](CO)N3CCCCN(S(=O)(=O)c4ccc(OC)cc4)C[C@@H]23)cc1	-13.51
Cc1ccccc1S(=O)(=O)N[C@@H]1CC[C@@H](CCn2cc(-c3ccc(F)cc3)nn2)O[C@H]1CO	-25.43
COc1ccccc1CNC(=O)C[C@@H]1CC[C@@H]2[C@H](COC[C@H](O)CN2Cc2cccc(-c3ccncc3)c2)O1	-39.8
O=C(C[C@@H]1CC[C@@H]2[C@H](COC[C@H](O)CN2Cc2nccs2)O1)N1CCC(Cc2ccccc2)CC1	-7.817
COc1ccc2c3c([nH]c2c1)[C@H](CO)N(C(=O)Nc1ccc(F)cc1)CC31CCN(C(=O)Nc2ccccc2)CC1	-20.02
CO[C@@H]1CN(C)C(=O)c2ccc(NC(=O)c3nc4ccccc4s3)cc2OC[C@@H](C)N(Cc2cccnc2)C[C@@H]1C	-30.02
COC(=O)c1ccc(CN2CC(=O)N3[C@H](CO)[C@H](c4ccc(-c5ccccc5F)cc4)[C@H]3C2)cc1	-3.808
COc1ccc(S(=O)(=O)N(C)C[C@H]2OCc3ccccc3-c3c(n(C)c4ccccc34)C(=O)N([C@@H](C)CO)C[C@H]2C)cc1	-5.071
N#C[C@H]1[C@@H](c2ccccc2C2=CCCCC2)[C@@H](CO)N1S(=O)(=O)c1cccc(F)c1	-29.76
COc1cccc(-c2ccc3c(c2)[C@@H]2[C@@H](CCN2C(=O)Cc2ccccc2)[C@@H](CO)N3)c1	-65.29
C[C@H](CO)N1C[C@H](C)[C@H](CN(C)Cc2cccc(C(F)(F)F)c2)OCc2ccccc2-c2ccccc2C1=O	-32.43
O=C(C[C@@H]1CC[C@H]2[C@@H](COC[C@@H](O)CN2S(=O)(=O)c2ccc(F)cc2)O1)NCc1ccc(Cl)c(Cl)c1	-12.87
C[C@H](CO)N1C[C@H](C)[C@H](CN(C)S(=O)(=O)c2ccc(F)cc2)OCc2ccccc2-c2c(n(C)c3ccccc23)C1=O	-71.46
COc1ccc(-c2ccc3c(c2)[C@H]2[C@H](CCN2C(=O)C2CCCCC2)[C@H](CO)N3C)cc1	-54.98
O=C(Cc1ccccn1)N[C@@H]1CC[C@@H](CCn2cc(-c3ccc(F)cc3)nn2)O[C@@H]1CO	-65.05
COc1cccc(S(=O)(=O)Nc2ccc3c(c2)[C@H]2C[C@H](CC(=O)NCc4ccccc4F)O[C@H](CO)[C@H]2O3)c1	-6.516
C[C@H](CO)N1C[C@H](C)[C@H](CN(C)C(=O)[C@H](Cc2ccccc2)N(C)C)OCc2ccccc2-c2c(n(C)c3ccccc23)C1=O	-32.91
COc1cc(CN2CC3(CN(S(=O)(=O)c4cccs4)C3)c3c(n(C)c4cc(OC)ccc34)[C@H]2CO)cc(OC)c1	-54.64
O=C([C@@H]1N[C@@H]2c3ccc(C4=CCCCC4)c(=O)n3C[C@@H]2[C@H]1CO)N1CCC(Cc2ccccc2)CC1	-19.2
COc1cccc(-c2ccc3c(c2)[C@@H]2[C@@H](CCN2C(=O)c2ccc4c(c2)OCO4)[C@H](CO)N3C)c1	-58.01
COC(=O)C[C@H]1C[C@H]2c3cc(NC(=O)Nc4ccc(C(F)(F)F)cc4)ccc3O[C@H]2[C@H](CO)O1	-10.71
CO[C@@H]1CN(C)C(=O)c2cc(NC(=O)c3ccc4c(c3)OCO4)ccc2OC[C@H](C)N(CCC(F)(F)F)C[C@H]1C	-6.001
O=C(C1CCOCC1)N1CC(=O)N2[C@H](C1)[C@H](c1ccc(C#Cc3cccc(F)c3)cc1)[C@@H]2CO	-6.163
COc1ccc2c3c([nH]c2c1)[C@@H](CO)N(C(=O)Nc1ccc(F)cc1)CC31CN(C(=O)c2ccccn2)C1	-13.9
O=C(C[C@H]1CC[C@@H]2[C@H](COC[C@H](O)CN2C(=O)c2ccc(F)cc2)O1)Nc1ccc(-c2ccccc2)cc1	-10.88
O=C(Cc1ccccn1)N1CCCCN2[C@H](CO)[C@H](c3ccc(C#Cc4ccccc4)cc3)[C@H]2C1	-39.56
COc1cccc(S(=O)(=O)N2CC3(CN(C(=O)Nc4ccc(F)cc4)[C@@H](CO)c4[nH]c5cc(OC)ccc5c43)C2)c1	-11.41
CCCNC(=O)N1[C@H](CO)[C@H](c2ccccc2-c2cccc(OC)c2)[C@@H]1C#N	-27.38
CN(C)C(=O)c1cccc(-c2ccc3c(c2)[C@@H]2[C@@H](CCN2C(=O)C2CCOCC2)[C@H](CO)N3)c1	-1.639
O=C(c1ccc2c(c1)OCO2)N1CC(=O)N2[C@H](CO)[C@H](c3ccc(C#CCC4CCCC4)cc3)[C@@H]2C1	-17.37
O=C(C[C@H]1CC[C@@H]2[C@H](COC[C@@H](O)CN2Cc2cc(F)ccc2F)O1)NCc1ccc(Oc2ccccc2)cc1	-19.65
O=C(C[C@H]1CC[C@H]2[C@@H](COC[C@H](O)CN2Cc2cc(F)cc(F)c2)O1)NC1CCCC1	-13.03

The last 6 entries again:

SMILES	activity change (%)
COc1cccc(S(=O)(=O)N2CC3(CN(C(=O)Nc4ccc(F)cc4)[C@@H](CO)c4[nH]c5cc(OC)ccc5c43)C2)c1	-11.41
CCCNC(=O)N1[C@H](CO)[C@H](c2ccccc2-c2cccc(OC)c2)[C@@H]1C#N	-27.38
CN(C)C(=O)c1cccc(-c2ccc3c(c2)[C@@H]2[C@@H](CCN2C(=O)C2CCOCC2)[C@H](CO)N3)c1	-1.639
O=C(c1ccc2c(c1)OCO2)N1CC(=O)N2[C@H](CO)[C@H](c3ccc(C#CCC4CCCC4)cc3)[C@@H]2C1	-17.37
O=C(C[C@H]1CC[C@@H]2[C@H](COC[C@@H](O)CN2Cc2cc(F)ccc2F)O1)NCc1ccc(Oc2ccccc2)cc1	-19.65
O=C(C[C@H]1CC[C@H]2[C@@H](COC[C@H](O)CN2Cc2cc(F)cc(F)c2)O1)NC1CCCC1	-13.03

Data taken from PubChem BioAssay AID1224904, deposited by Broad Institute (2016).